Laboratory results published in patent US7199219B1, “Polypeptides derived from vitamin D nuclear receptor, and their uses in particular for screening vitamin D analogues” (Centre National de la Recherche Scientifique, priority 1999, dated 2007).
Results are given in words; binding and its absence hold for the method and conditions named. Some entries that bind do so weakly or less than the wild type.

Amino acid sequences for entries named in this document (tags omitted). Residues count along the entry.
UniProt P19793, residues 223-462: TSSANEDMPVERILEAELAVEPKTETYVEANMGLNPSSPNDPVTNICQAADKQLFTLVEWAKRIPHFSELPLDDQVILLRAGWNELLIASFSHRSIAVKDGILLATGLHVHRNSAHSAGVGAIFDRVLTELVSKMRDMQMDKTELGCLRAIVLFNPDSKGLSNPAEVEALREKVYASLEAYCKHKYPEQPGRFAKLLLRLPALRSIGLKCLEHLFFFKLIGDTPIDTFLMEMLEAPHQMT

Molecular target: LBD of RXRα (human) (UniProt P19793)
Test: dimerisation; method not described

- binding: binds
B1: hVDR (118-427 Δ165-215) (receptor)
chain: DSLRPKLSEEQQRIIAILLDAHHKTYDPTYSDFCQFRPPVRVNDGGGSVTLELSQLSMLPHLADLVSYSIQKVIGFAKMIPGFRDLTSEDQIVLLKSSAIEVIMLRSNESFTMDDMSWTCGNQDYKYRVSDVTKAGHSLELIEPLIKFQVGLKKLNLHEEEHVLLMAICIVSPDRPGVQDAALIEAIQDRLSNTLQTYIRCRHPPPGSHLLYAKMIQKLADLRSLNEEHSKQYRCLSFQPECSMKLTPLVLEVFGNEIS
